Experimental data: PMC6868212
No constants are given. Whether binding was seen depends on the method and setting. Binding seen in cells or lysates may run through a third protein. Some entries that bind do so weakly or less than the wild type.

Amino acid sequences for entries named in this document (tags omitted).
UniProt Q9BPZ7: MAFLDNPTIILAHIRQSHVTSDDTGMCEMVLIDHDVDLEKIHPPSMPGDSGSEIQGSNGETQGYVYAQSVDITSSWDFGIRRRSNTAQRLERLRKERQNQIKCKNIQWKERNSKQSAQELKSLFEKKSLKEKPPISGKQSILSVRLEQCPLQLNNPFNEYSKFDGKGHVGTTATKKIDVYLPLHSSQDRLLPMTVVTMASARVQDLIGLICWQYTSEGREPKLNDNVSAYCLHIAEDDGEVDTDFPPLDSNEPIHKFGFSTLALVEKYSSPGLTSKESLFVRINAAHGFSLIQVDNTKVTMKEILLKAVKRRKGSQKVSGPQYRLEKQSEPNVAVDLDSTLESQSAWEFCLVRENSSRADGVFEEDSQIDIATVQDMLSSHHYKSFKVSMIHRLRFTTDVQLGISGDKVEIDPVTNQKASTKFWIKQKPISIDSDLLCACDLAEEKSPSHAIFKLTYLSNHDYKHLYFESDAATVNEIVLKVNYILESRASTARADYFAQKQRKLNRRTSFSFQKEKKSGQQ

Key:
Sin1 = Sin1 (UniProt Q9BPZ7); test: co-IP; transfection/Co-immunoprecipitation experiment; who was precipitated is not given
[1] = biological target: Sin1 (endogenous) (human (endogenous in 293T)) (UniProt Q9BPZ7); test: co-IP; endogenous proteins in 293T cells; MG132 added 12 h prior to cell harvest for immunoprecipitation; western blot

Row | binding (Sin1) | binding [1] | Binder
1 | binds | – | SOCS6 (protein, UniProt O14544 1-535) MKKISLKTLRKSFNLNKSKEETDFMVVQQPSLASDFGKDDSLFGSCYGKDMASCDINGEDEKGGKNRSKSESLMGTLKRRLSAKQKSKGKAGTPSGSSADEDTFSSSSAPIVFKDVRAQRPIRSTSLRSHHYSPAPWPLRPTNSEETCIKMEVRVKALVHSSSPSPALNGVRKDFHDLQSETTCQEQANSLKSSASHNGDLHLHLDEHVPVVIGLMPQDYIQYTVPLDEGMYPLEGSRSYCLDSSSPMEVSAVPPQVGGRAFPEDESQVDQDLVVAPEIFVDQSVNGLLIGTTGVMLQSPRAGHDDVPPLSPLLPPMQNNQIQRNFSGLTGTEAHVAESMRCHLNFDPNSAPGVARVYDSVQSSGPMVVTSLTEELKKLAKQGWYWGPITRWEAEGKLANVPDGSFLVRDSSDDRYLLSLSFRSHGKTLHTRIEHSNGRFSFYEQPDVEGHTSIVDLIEHSIRDSENGAFCYSRSRLPGSATYPVRLTNPVSRFMQVRSLQYLCRFVIRQYTRIDLIQKLPLPNKMKDYLQEKHY
2 | – | binds | SOCS6 (endogenous) (protein, UniProt O14544 1-535) MKKISLKTLRKSFNLNKSKEETDFMVVQQPSLASDFGKDDSLFGSCYGKDMASCDINGEDEKGGKNRSKSESLMGTLKRRLSAKQKSKGKAGTPSGSSADEDTFSSSSAPIVFKDVRAQRPIRSTSLRSHHYSPAPWPLRPTNSEETCIKMEVRVKALVHSSSPSPALNGVRKDFHDLQSETTCQEQANSLKSSASHNGDLHLHLDEHVPVVIGLMPQDYIQYTVPLDEGMYPLEGSRSYCLDSSSPMEVSAVPPQVGGRAFPEDESQVDQDLVVAPEIFVDQSVNGLLIGTTGVMLQSPRAGHDDVPPLSPLLPPMQNNQIQRNFSGLTGTEAHVAESMRCHLNFDPNSAPGVARVYDSVQSSGPMVVTSLTEELKKLAKQGWYWGPITRWEAEGKLANVPDGSFLVRDSSDDRYLLSLSFRSHGKTLHTRIEHSNGRFSFYEQPDVEGHTSIVDLIEHSIRDSENGAFCYSRSRLPGSATYPVRLTNPVSRFMQVRSLQYLCRFVIRQYTRIDLIQKLPLPNKMKDYLQEKHY
